Data: publication PMC8335679
These are yes or no findings as the source states them, for the method shown. Binding seen in cells or lysates may run through a third protein. Some results given as binding are weak or reduced against the parent protein; the word gives no strength.

The chains behind the UniProt entries cited, without tags or fusion partners.
UniProt O43516: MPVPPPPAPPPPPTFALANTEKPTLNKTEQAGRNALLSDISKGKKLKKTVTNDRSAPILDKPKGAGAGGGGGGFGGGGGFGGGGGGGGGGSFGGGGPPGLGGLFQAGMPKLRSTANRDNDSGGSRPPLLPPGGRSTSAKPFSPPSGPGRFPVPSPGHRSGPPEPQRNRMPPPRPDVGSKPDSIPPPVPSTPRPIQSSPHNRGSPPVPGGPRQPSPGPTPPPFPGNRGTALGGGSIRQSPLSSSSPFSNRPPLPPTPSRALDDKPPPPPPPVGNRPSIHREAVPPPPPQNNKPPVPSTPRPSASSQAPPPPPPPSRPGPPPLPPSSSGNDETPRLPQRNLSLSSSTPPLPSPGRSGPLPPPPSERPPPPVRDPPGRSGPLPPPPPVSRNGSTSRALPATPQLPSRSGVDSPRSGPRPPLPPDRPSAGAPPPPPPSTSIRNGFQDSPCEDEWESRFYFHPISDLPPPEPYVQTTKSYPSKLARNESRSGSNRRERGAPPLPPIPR
UniProt P61586: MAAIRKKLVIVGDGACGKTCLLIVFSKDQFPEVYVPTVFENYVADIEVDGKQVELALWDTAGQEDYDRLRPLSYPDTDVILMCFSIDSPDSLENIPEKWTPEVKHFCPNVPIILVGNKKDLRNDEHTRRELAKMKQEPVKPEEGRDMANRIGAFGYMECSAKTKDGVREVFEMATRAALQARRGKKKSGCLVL

Target: WIPF1 (human) (UniProt O43516)
Assay: co-IP; cell extracts incubated with antibodies against WIPF1 or RhoA, then protein A/G-Sepharose overnight at 4 C; washed with lysis buffer and ice-cold PBS; immunoblot

binding: binds
Substance: RhoA (from UniProt P61586 1-193)
